From the supplement of paper PMC4604168 (melanoma cell lines)
The other results are listed elsewhere or left out. Repeats are few or missing, and single values can be far off.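 The apoptosis fraction was the count of cleaved-PARP antibody-stained nuclei relative to all DNA-stained nuclei, imaged in 1,536-well plates. Screening doses were set so most cells survived, and baseline and induced cleaved-PARP levels vary greatly across cell lines.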

Assays:
Test in all cases: cleaved PARP positive nuclei fraction relative to DMSO control; melanoma cells; higher = more apoptosis
Conditions in all cases: library dose: low library concentration; 72 h
501Mel = system: 501Mel
A101D = system: A101D
A2058 = system: A2058
A375 = system: A375
C32 = system: C32
CBRC008 = system: CBRC008 (line from a melanoma biopsy)
CBRC013 = system: CBRC013 (line from a melanoma biopsy)
CBRC014 = system: CBRC014 (line from a melanoma biopsy)
CBRC016 = system: CBRC016 (line from a melanoma biopsy)
CBRC017 = system: CBRC017 (line from a melanoma biopsy)
COLO792 = system: COLO792
COLO800 = system: COLO800
COLO829 = system: COLO829
G361 = system: G361
IPC-298 = system: IPC-298
IST-MEL1 = system: IST-MEL1
LB2518-MEL = system: LB2518-MEL
LOXIMVI = system: LOXIMVI
MEL-HO = system: MEL-HO

| Structure (SMILES) | cleaved PARP positive nuclei fraction (501Mel) | cleaved PARP positive nuclei fraction (A101D) | cleaved PARP positive nuclei fraction (A2058) | cleaved PARP positive nuclei fraction (A375) | cleaved PARP positive nuclei fraction (C32) | cleaved PARP positive nuclei fraction (CBRC008) | cleaved PARP positive nuclei fraction (CBRC013) | cleaved PARP positive nuclei fraction (CBRC014) | cleaved PARP positive nuclei fraction (CBRC016) | cleaved PARP positive nuclei fraction (CBRC017) | cleaved PARP positive nuclei fraction (COLO792) | cleaved PARP positive nuclei fraction (COLO800) | cleaved PARP positive nuclei fraction (COLO829) | cleaved PARP positive nuclei fraction (G361) | cleaved PARP positive nuclei fraction (IPC-298) | cleaved PARP positive nuclei fraction (IST-MEL1) | cleaved PARP positive nuclei fraction (LB2518-MEL) | cleaved PARP positive nuclei fraction (LOXIMVI) | cleaved PARP positive nuclei fraction (MEL-HO) |
| --- | --- | --- | --- | --- | --- | --- | --- | --- | --- | --- | --- | --- | --- | --- | --- | --- | --- | --- | --- |
| O=c1[nH]nc(Sc2ncc([N+](=O)[O-])s2)n1-c1ccc2c(c1)OCCO2 + COc1cc(Nc2ncc(F)c(Nc3ccc4c(n3)NC(=O)C(C)(C)O4)n2)cc(OC)c1OC [Tamatinib] (first compound 0.2 µM, partner dose 0.4 µM) | 61.2% | 91.4% | 238% | 103% | 42.8% | 231% | 89.7% | 102% | 71.7% | 100% | 147% | 122% | 160% | 130% | 114% | 21.8% | 49.7% | 89.8% | 70.8% |
| N#CC[C@H](C1CCCC1)n1cc(-c2ncnc3[nH]ccc23)cn1 [ruxolitinib] + CN(NC(=O)CC(=O)NN(C)C(=S)c1ccccc1)C(=S)c1ccccc1 [STA4783] (first compound 1 µM, partner dose 0.006 µM) | 90.9% | 161% | 72.3% | 1750% | 127% | 2440% | 178% | 518% | 511% | 162% | 250% | 121% | 120% | 69.9% | 44.1% | 123% | 51.1% | 42.3% | 143% |
| Cc1cn(-c2cc(NC(=O)c3ccc(C)c(Nc4nccc(-c5cccnc5)n4)c3)cc(C(F)(F)F)c2)cn1 [nilotinib] + COc1cc2c(Oc3ccc4[nH]c(C)cc4c3F)ncnc2cc1OCCCN1CCCC1 [cediranib] (first compound 0.2 µM, partner dose 0.4 µM) | 91.1% | 89.6% | 31.7% | 90.3% | 65.8% | 60.1% | 102% | 84% | 77.9% | 87.8% | 114% | 63.4% | 66.6% | 53.9% | 87.5% | 97.8% | 91.8% | 109% | 134% |
| O=C(Nc1cc(C(F)(F)F)cc(C(F)(F)F)c1)c1cc(Cl)ccc1O + OCCn1cc(-c2cnc3nnn(Cc4ccc5ncccc5c4)c3n2)cn1 [PF04217903] (first compound 0.016 µM, partner dose 1 µM) | 88% | 39% | 96.9% | 104% | 57.9% | 260% | 148% | 61.9% | 119% | 98% | 57.9% | 74.8% | 21.3% | 98.3% | 113% | 32.9% | 107% | 112% | 70.2% |
| Cc1cn(-c2cc(NC(=O)c3ccc(C)c(Nc4nccc(-c5cccnc5)n4)c3)cc(C(F)(F)F)c2)cn1 [nilotinib] + C[C@@H]1CCN(C(=O)CC#N)C[C@@H]1N(C)c1ncnc2[nH]ccc12 [CP690550] (first compound 0.2 µM, partner dose 1 µM) | 81% | 69.4% | 96.4% | 126% | 44.8% | 22.8% | 177% | 820% | 62.5% | 86% | 468% | 30.9% | 90.3% | 90.6% | 86.6% | 102% | 71.2% | 923% | 195% |
| Cc1cc(Nc2cc(N3CCN(C)CC3)nc(Sc3ccc(NC(=O)C4CC4)cc3)n2)n[nH]1 [Tozasertib] + O=C(Nc1cccc(Cl)c1)Nc1ncc(CCNc2ncnc3ccsc23)s1 [SNS314] (first compound 0.006 µM, partner dose 0.0008 µM) | 298% | 85% | 103% | 46.5% | 199% | 128% | 124% | 83% | 73.7% | 108% | 119% | 80.1% | 139% | 80.5% | 87.4% | 47.2% | 103% | 111% | 75.8% |
| CCCCCCCCCCCCCCCCCCOP(=O)([O-])OC1CC[N+](C)(C)CC1 [Perifosine] + O=C(CCCCCCC(=O)Nc1ccccc1)NO [vorinostat] (first compound 0.4 µM, partner dose 0.08 µM) | 137% | 138% | 242% | 294% | 105% | 58.7% | 102% | 72% | 240% | 74.6% | 96.3% | 84.3% | 150% | 95% | 229% | 97.2% | 50.3% | 68% | 124% |
| CCCCCCCCCCCCCCCCCCOP(=O)([O-])OC1CC[N+](C)(C)CC1 [Perifosine] + Cc1ccc(NC(=O)c2cccc(N(C)C)c2)cc1NC(=O)c1ccc(O)cc1 [ZM336372] (first compound 0.4 µM, partner dose 2 µM) | 97.7% | 94% | 189% | 49.2% | 76% | 195% | 115% | 96.5% | 82.6% | 123% | 160% | 49.5% | 61.5% | 179% | 27.3% | 199% | 134% | 124% | 74.5% |
| O=c1[nH]nc(Sc2ncc([N+](=O)[O-])s2)n1-c1ccc2c(c1)OCCO2 + CN(C)S(=O)(=O)c1ccc2c(c1)/C(=C/c1cc3c([nH]1)CCCC3)C(=O)N2 [SU6656] (first compound 0.2 µM, partner dose 0.4 µM) | 93.1% | 97.9% | 64.8% | 59.3% | 96.8% | 67.6% | 119% | 100% | 154% | 91.8% | 107% | 163% | 119% | 134% | 90.1% | 110% | 49.1% | 17.6% | 185% |
| CC[C@]1(O)C[C@H]2CN(CCc3c([nH]c4ccccc34)[C@@](C(=O)OC)(c3cc4c(cc3OC)N(C=O)[C@H]3[C@@](O)(C(=O)OC)[C@H](OC(C)=O)[C@]5(CC)C=CCN6CC[C@]43[C@@H]65)C2)C1 [vincristine] + CN(C)S(=O)(=O)c1ccc2c(c1)/C(=C/c1cc3c([nH]1)CCCC3)C(=O)N2 [SU6656] (first compound 0.0001 µM, partner dose 0.4 µM) | 214% | 431% | 4170% | 186% | 306% | 960% | 124% | 83.5% | 166% | 86% | 82.1% | 104% | 138% | 142% | 92.8% | 102% | 88.4% | 70% | 61.5% |
| COc1cc([C@@H]2c3cc4c(cc3[C@@H](O[C@@H]3O[C@@H]5CO[C@@H](C)O[C@H]5[C@H](O)[C@H]3O)[C@H]3COC(=O)[C@H]23)OCO4)cc(OC)c1O [etoposide] + C[C@@H]1CCN(C(=O)CC#N)C[C@@H]1N(C)c1ncnc2[nH]ccc12 [CP690550] (first compound 0.02 µM, partner dose 1 µM) | 170% | 163% | 121% | 25.5% | 113% | 37.3% | 58.3% | 67% | 225% | 80.3% | 86.4% | 115% | 70.1% | 64.7% | 175% | 194% | 103% | 59% | 73.8% |
| COc1cc([C@@H]2c3cc4c(cc3[C@@H](O[C@@H]3O[C@@H]5CO[C@@H](C)O[C@H]5[C@H](O)[C@H]3O)[C@H]3COC(=O)[C@H]23)OCO4)cc(OC)c1O [etoposide] + Cn1cncc1[C@@](N)(c1ccc(Cl)cc1)c1ccc2c(c1)c(-c1cccc(Cl)c1)cc(=O)n2C [tipifarnib] (first compound 0.02 µM, partner dose 0.01 µM) | 165% | 44.4% | 133% | 119% | 104% | 61.1% | 79.1% | 101% | 145% | 302% | 121% | 63.8% | 68% | 100% | 96% | 153% | 57.5% | 19.4% | 149% |
| Cc1ccc(Nc2nccc(N(C)c3ccc4c(C)n(C)nc4c3)n2)cc1S(N)(=O)=O [Pazopanib] + CC1(C)NC(=O)N(c2ccc([N+](=O)[O-])c(C(F)(F)F)c2)C1=O [nilutamide] (first compound 0.4 µM, partner dose 1 µM) | 75.4% | 80.5% | 77% | 86.4% | 35% | 181% | 88.8% | 93% | 179% | 109% | 44.1% | 85.6% | 142% | 273% | 47.6% | 64.2% | 84.2% | 49.7% | 108% |
| O=C(Nc1cc(C(F)(F)F)cc(C(F)(F)F)c1)c1cc(Cl)ccc1O + Cc1cc(N2CCOCC2)cc2[nH]c(-c3c(NC[C@@H](O)c4cccc(Cl)c4)cc[nH]c3=O)nc12 [BMS536924] (first compound 0.016 µM, partner dose 0.2 µM) | 94.7% | 150% | 50.6% | 139% | 201% | 302% | 187% | 79.9% | 86.3% | 154% | 153% | 116% | 99.9% | 113% | 98.1% | 102% | 109% | 206% | 62.9% |
| Cc1ccc(Nc2nccc(N(C)c3ccc4c(C)n(C)nc4c3)n2)cc1S(N)(=O)=O [Pazopanib] + NCC(=O)Nc1ccc(-n2nc(C(F)(F)F)cc2-c2ccc3c(ccc4ccccc43)c2)cc1 [OSU03012] (first compound 0.4 µM, partner dose 1 µM) | 463% | 216% | 120% | 3150% | 146% | 165% | 46.7% | 96.7% | 217% | 82.7% | 18.8% | 121% | 138% | 103% | 118% | 110% | 42.7% | 122% | 199% |
| O=C(/C=C/c1cccnc1)NCCCCC1CCN(C(=O)c2ccccc2)CC1 + COc1cc2c(Oc3ccc4[nH]c(C)cc4c3F)ncnc2cc1OCCCN1CCCC1 [cediranib] (first compound 0.01 µM, partner dose 0.4 µM) | 91.4% | 86.2% | 85.7% | 123% | 95.5% | 4300% | 75.9% | 88.2% | 469% | 266% | 236% | 283% | 401% | 2620% | 212% | 191% | 282% | 68.9% | 361% |

Look-ups from the entries so far.
Entry for Cc1ccc(Nc2nccc(N(C)c3ccc4c(C)n(C)nc4c3)n2)cc1S(N)(=O)=O [Pazopanib] + NCC(=O)Nc1ccc(-n2nc(C(F)(F)F)cc2-c2ccc3c(ccc4ccccc43)c2)cc1 [OSU03012] (first compound 0.4 µM, partner dose 1 µM) under cleaved PARP positive nuclei fraction (LB2518-MEL): 42.7%
Entry for O=c1[nH]nc(Sc2ncc([N+](=O)[O-])s2)n1-c1ccc2c(c1)OCCO2 + COc1cc(Nc2ncc(F)c(Nc3ccc4c(n3)NC(=O)C(C)(C)O4)n2)cc(OC)c1OC [Tamatinib] (first compound 0.2 µM, partner dose 0.4 µM) under cleaved PARP positive nuclei fraction (501Mel): 61.2%
